Several values for one entry are separate records, joined by “and”; a condition that tells them apart may be missing. Equal entries are not always repeated. Further values from the same series stand in other lists. Where a SMILES comes first, the peptide text is derived from it. The star is where a group is joined. Benzoyl(4-OMe) = COc1ccc(C(=O)*)cc1
Tested on: SW480 cells
Assay: xCELLigence RTCA-DP migration assay, SW480
Assay type: cell-based
Settings: 50 μM
Method: Real-time cell migration was evaluated using the xCELLigence RTCA-DP system (Roche). Briefly, SW480 cells were serum-starved for 8 h, digested, and resuspended in serum-free medium. The wells in the upper chamber of CIM plate 16 were preequilibrated with 30 μL serum-free medium for 1 h and filled with 100 μL of 4 × 10^4 serum-starved SW480 cells per well. The wells in the lower chamber of CIM plate 16 were filled with complete medium. […] Cell index values were detected every 15 min throughout the procedure, and the data were collected and analyzed with RTCA software (version 2.3).

Compound: COc1ccc(C(=O)N[C@@H](C)C(=O)NCC(=O)N[C@@H](CCC(=O)O)C(=O)N[C@@H](CO)C(=O)N[C@@H](CC(C)C)C(=O)N[C@@H](Cc2ccc(O)cc2)C(=O)N[C@@H](CCC(=O)O)C(N)=O)cc1 [MAI-516] ({Benzoyl(4-OMe)}-AGESLYE-NH2)
- Cell index (Time 0 h (first reading)): 0
- Cell index (Time 1.86 h): 0.1225 and 0.16 and 0.1054 and 0.1518
- Cell index (Time 2.11 h): 0.0786 and 0.0887 and 0.0517 and 0.0718
- Cell index (Time 2.36 h): 0.0778 and 0.0891 and 0.0546 and 0.0648
- Cell index (Time 2.61 h): 0.0834 and 0.0901 and 0.0611 and 0.0634
- Cell index (Time 3.36 h): 0.0984 and 0.1047 and 0.0757 and 0.0677
- Cell index (Time 3.61 h): 0.1001 and 0.1111 and 0.0772 and 0.068
- Cell index (Time 3.86 h): 0.1064 and 0.1135 and 0.0864 and 0.071
- Cell index (Time 4.11 h): 0.1096 and 0.1206 and 0.0894 and 0.0738
- Cell index (Time 4.36 h): 0.1163 and 0.1258 and 0.0949 and 0.0781
- Cell index (Time 4.61 h): 0.1186 and 0.1315 and 0.1033 and 0.0827
- Cell index (Time 4.86 h): 0.1235 and 0.1381 and 0.1077 and 0.0866
- Cell index (Time 5.11 h): 0.1264 and 0.1412 and 0.1143 and 0.09
- Cell index (Time 5.36 h): 0.1298 and 0.1475 and 0.1176 and 0.0939
- Cell index (Time 5.61 h): 0.1379 and 0.152 and 0.1259 and 0.0992
- Cell index (Time 5.86 h): 0.1421 and 0.1565 and 0.1317 and 0.1026
- Cell index (Time 6.11 h): 0.1432 and 0.1621 and 0.1354 and 0.1072
- Cell index (Time 6.36 h): 0.1479 and 0.1647 and 0.1411 and 0.1107
- Cell index (Time 6.61 h): 0.1525 and 0.1693 and 0.1456 and 0.1162
- Cell index (Time 6.86 h): 0.1569 and 0.1748 and 0.1474 and 0.1194
- Cell index (Time 7.11 h): 0.1604 and 0.1783 and 0.1509 and 0.1235
- Cell index (Time 7.36 h): 0.1616 and 0.1856 and 0.1514 and 0.1272
- Cell index (Time 7.61 h): 0.1665 and 0.188 and 0.1551 and 0.1294
- Cell index (Time 7.86 h): 0.1704 and 0.1911 and 0.1601 and 0.135
- Cell index (Time 8.11 h): 0.1753 and 0.194 and 0.1635 and 0.1388
- Cell index (Time 8.36 h): 0.1752 and 0.1987 and 0.163 and 0.1411
- Cell index (Time 8.61 h): 0.1784 and 0.2022 and 0.1662 and 0.1449
- Cell index (Time 8.86 h): 0.1819 and 0.2057 and 0.1687 and 0.1483
- Cell index (Time 9.11 h): 0.1847 and 0.2086 and 0.1722 and 0.1526
- Cell index (Time 9.36 h): 0.1879 and 0.2118 and 0.175 and 0.1549
- Cell index (Time 9.61 h): 0.1905 and 0.2159 and 0.1775 and 0.1591
- Cell index (Time 9.86 h): 0.1945 and 0.2149 and 0.1815 and 0.1637
- Cell index (Time 10.11 h): 0.1979 and 0.2199 and 0.1851 and 0.165
- Cell index (Time 10.36 h): 0.1977 and 0.2218 and 0.185 and 0.1681
- Cell index (Time 10.61 h): 0.2033 and 0.2251 and 0.1904 and 0.1711
- Cell index (Time 10.86 h): 0.2028 and 0.2274 and 0.1902 and 0.1739
- Cell index (Time 11.11 h): 0.2051 and 0.2299 and 0.192 and 0.1756
- Cell index (Time 11.37 h): 0.2102 and 0.2316 and 0.196 and 0.1783
- Cell index (Time 11.62 h): 0.2124 and 0.2329 and 0.2003 and 0.1822
- Cell index (Time 11.87 h): 0.2123 and 0.238 and 0.1996 and 0.1835
- Cell index (Time 12.12 h): 0.215 and 0.2411 and 0.2009 and 0.1859
- Cell index (Time 12.37 h): 0.2203 and 0.2401 and 0.2064 and 0.1896
- Cell index (Time 12.62 h): 0.2191 and 0.2442 and 0.2052 and 0.1901
- Cell index (Time 12.87 h): 0.2248 and 0.245 and 0.2107 and 0.194
- Cell index (Time 13.12 h): 0.2263 and 0.2481 and 0.2115 and 0.1944
- Cell index (Time 13.37 h): 0.23 and 0.2494 and 0.2159 and 0.1998
- Cell index (Time 13.62 h): 0.2306 and 0.2534 and 0.2189 and 0.2001
- Cell index (Time 13.87 h): 0.2358 and 0.2541 and 0.2221 and 0.2037
- Cell index (Time 14.12 h): 0.2378 and 0.2593 and 0.2231 and 0.2052
- Cell index (Time 14.37 h): 0.2402 and 0.2624 and 0.2263 and 0.2068
- Cell index (Time 14.62 h): 0.2444 and 0.2632 and 0.2302 and 0.2131
- Cell index (Time 14.87 h): 0.2431 and 0.268 and 0.2294 and 0.2132
- Cell index (Time 15.12 h): 0.2476 and 0.2705 and 0.2323 and 0.2163
- Cell index (Time 15.37 h): 0.2502 and 0.2755 and 0.2361 and 0.2174
- Cell index (Time 15.62 h): 0.2556 and 0.2765 and 0.2389 and 0.2205
- Cell index (Time 15.87 h): 0.259 and 0.2799 and 0.2437 and 0.2229
- Cell index (Time 16.12 h): 0.2595 and 0.283 and 0.245 and 0.2238
- Cell index (Time 16.37 h): 0.2621 and 0.2866 and 0.2478 and 0.2283
- Cell index (Time 16.62 h): 0.2699 and 0.286 and 0.2533 and 0.2319
- Cell index (Time 16.87 h): 0.2702 and 0.2918 and 0.2541 and 0.2354
- Cell index (Time 17.12 h): 0.2756 and 0.2938 and 0.2589 and 0.2362
- Cell index (Time 17.37 h): 0.2798 and 0.2964 and 0.2619 and 0.2399
- Cell index (Time 17.62 h): 0.2828 and 0.3007 and 0.265 and 0.2426
- Cell index (Time 17.87 h): 0.2848 and 0.3076 and 0.2647 and 0.2423
- Cell index (Time 18.12 h): 0.2903 and 0.3103 and 0.2731 and 0.2479
- Cell index (Time 18.37 h): 0.292 and 0.3131 and 0.2751 and 0.2498
- Cell index (Time 18.62 h): 0.2954 and 0.3161 and 0.2764 and 0.2544
- Cell index (Time 18.87 h): 0.2986 and 0.3209 and 0.2807 and 0.2557
- Cell index (Time 19.12 h): 0.3022 and 0.3243 and 0.2839 and 0.2588
- Cell index (Time 19.37 h): 0.3081 and 0.3266 and 0.2888 and 0.2628
- Cell index (Time 19.62 h): 0.3118 and 0.3286 and 0.2913 and 0.2675
- Cell index (Time 19.87 h): 0.313 and 0.3352 and 0.2917 and 0.27
- Cell index (Time 20.12 h): 0.316 and 0.3405 and 0.3004 and 0.2735
- Cell index (Time 20.37 h): 0.3218 and 0.3437 and 0.3006 and 0.2761
- Cell index (Time 20.62 h): 0.3273 and 0.3454 and 0.3062 and 0.2792
- Cell index (Time 20.87 h): 0.3311 and 0.3497 and 0.3096 and 0.2815
- Cell index (Time 21.12 h): 0.3323 and 0.3532 and 0.3101 and 0.285
- Cell index (Time 21.37 h): 0.3348 and 0.3601 and 0.3145 and 0.2857
- Cell index (Time 21.62 h): 0.3388 and 0.3663 and 0.3177 and 0.2891
- Cell index (Time 21.87 h): 0.3435 and 0.3699 and 0.3245 and 0.292
- Cell index (Time 22.12 h): 0.3489 and 0.3734 and 0.3274 and 0.297
- Cell index (Time 22.37 h): 0.3518 and 0.3813 and 0.3325 and 0.2971

Reference: article PMC9402538, “Rational design of a sensitivity-enhanced tracer for discovering efficient APC–Asef inhibitors” (Nature Communications, 2022)
